# Reference: the supplement of paper PMC6411743
# The chains behind the UniProt entries cited, without tags or fusion partners. Where a name states a change or a piece, a line headed by the entry shows the natural chain unless it says otherwise.
# UniProt P63167, whole entry: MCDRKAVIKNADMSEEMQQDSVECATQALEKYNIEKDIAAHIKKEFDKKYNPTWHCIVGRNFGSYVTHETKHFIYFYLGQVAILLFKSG
# UniProt P78347: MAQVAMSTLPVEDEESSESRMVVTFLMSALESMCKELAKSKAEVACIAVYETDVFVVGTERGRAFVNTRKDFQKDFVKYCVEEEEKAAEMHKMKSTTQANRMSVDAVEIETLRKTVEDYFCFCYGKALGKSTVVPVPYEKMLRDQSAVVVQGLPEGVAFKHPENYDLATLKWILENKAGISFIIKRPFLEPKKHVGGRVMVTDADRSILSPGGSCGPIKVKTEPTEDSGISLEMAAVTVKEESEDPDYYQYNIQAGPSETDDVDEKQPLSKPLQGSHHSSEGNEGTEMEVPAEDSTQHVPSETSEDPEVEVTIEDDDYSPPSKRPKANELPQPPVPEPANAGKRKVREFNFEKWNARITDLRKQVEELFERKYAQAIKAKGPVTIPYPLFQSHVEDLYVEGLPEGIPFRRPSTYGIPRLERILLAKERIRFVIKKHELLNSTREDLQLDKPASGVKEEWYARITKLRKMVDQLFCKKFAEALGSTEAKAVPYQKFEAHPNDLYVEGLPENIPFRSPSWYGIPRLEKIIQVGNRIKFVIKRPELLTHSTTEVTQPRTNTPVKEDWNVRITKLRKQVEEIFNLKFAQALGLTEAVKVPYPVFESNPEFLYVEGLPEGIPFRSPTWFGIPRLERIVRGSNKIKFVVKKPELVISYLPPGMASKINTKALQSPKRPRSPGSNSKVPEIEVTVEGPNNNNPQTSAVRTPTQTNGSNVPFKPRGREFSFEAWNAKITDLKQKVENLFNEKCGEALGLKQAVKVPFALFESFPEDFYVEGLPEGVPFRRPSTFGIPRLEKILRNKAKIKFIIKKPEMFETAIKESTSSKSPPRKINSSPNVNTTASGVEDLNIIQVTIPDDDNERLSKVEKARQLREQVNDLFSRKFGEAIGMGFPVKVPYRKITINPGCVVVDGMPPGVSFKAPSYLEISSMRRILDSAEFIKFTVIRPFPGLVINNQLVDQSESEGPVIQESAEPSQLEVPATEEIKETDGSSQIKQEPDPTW
# UniProt P62256: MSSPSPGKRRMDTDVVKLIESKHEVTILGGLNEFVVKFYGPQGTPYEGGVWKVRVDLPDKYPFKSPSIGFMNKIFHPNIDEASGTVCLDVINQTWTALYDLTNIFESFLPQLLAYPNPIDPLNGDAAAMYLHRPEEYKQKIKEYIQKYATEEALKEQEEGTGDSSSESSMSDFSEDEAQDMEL
# UniProt Q04837: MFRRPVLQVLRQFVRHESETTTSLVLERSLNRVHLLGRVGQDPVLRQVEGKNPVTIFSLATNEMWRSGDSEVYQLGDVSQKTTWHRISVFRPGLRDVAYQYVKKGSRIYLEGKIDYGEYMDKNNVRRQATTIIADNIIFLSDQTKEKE
# UniProt Q06136: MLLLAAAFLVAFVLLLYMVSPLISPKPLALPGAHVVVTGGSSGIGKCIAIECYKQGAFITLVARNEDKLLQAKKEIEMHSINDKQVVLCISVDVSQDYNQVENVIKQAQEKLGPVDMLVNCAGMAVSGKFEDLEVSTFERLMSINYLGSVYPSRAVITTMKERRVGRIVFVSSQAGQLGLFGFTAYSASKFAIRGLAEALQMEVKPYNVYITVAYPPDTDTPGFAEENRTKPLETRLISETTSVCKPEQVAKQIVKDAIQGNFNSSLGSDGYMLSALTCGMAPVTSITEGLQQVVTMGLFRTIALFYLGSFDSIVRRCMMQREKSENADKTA
# UniProt Q01581: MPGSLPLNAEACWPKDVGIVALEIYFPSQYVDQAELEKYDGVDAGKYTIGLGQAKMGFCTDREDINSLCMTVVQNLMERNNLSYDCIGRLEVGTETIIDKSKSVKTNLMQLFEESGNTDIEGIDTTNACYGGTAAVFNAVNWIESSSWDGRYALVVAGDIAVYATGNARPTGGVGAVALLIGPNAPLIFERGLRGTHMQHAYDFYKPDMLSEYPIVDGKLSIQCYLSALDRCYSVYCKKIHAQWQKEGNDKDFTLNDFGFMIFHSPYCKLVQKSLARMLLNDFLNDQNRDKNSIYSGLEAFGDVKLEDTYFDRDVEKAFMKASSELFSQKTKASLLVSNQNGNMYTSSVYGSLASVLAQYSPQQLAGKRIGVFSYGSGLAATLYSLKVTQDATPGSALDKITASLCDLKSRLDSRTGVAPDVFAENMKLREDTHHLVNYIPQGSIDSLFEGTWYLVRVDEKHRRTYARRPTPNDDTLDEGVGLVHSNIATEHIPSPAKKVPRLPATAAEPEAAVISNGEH
# UniProt P56159: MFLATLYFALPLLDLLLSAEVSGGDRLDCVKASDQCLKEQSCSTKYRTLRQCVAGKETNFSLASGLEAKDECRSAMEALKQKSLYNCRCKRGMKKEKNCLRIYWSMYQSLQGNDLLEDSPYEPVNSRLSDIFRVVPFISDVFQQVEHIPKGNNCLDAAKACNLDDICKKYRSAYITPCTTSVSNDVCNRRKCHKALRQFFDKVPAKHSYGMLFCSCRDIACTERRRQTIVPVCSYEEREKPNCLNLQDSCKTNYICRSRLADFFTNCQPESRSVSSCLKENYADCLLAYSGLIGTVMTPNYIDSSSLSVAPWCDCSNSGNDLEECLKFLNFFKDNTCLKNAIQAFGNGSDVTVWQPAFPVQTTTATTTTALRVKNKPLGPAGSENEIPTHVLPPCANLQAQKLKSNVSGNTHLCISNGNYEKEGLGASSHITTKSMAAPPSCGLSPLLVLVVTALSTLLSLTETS
# UniProt P62820, whole entry: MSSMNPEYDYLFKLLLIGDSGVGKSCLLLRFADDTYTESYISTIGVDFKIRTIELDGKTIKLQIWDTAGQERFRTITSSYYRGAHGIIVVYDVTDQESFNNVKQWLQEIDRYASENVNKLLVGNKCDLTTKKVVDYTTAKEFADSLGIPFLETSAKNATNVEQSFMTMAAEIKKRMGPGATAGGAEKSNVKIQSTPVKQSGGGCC
# UniProt P98095: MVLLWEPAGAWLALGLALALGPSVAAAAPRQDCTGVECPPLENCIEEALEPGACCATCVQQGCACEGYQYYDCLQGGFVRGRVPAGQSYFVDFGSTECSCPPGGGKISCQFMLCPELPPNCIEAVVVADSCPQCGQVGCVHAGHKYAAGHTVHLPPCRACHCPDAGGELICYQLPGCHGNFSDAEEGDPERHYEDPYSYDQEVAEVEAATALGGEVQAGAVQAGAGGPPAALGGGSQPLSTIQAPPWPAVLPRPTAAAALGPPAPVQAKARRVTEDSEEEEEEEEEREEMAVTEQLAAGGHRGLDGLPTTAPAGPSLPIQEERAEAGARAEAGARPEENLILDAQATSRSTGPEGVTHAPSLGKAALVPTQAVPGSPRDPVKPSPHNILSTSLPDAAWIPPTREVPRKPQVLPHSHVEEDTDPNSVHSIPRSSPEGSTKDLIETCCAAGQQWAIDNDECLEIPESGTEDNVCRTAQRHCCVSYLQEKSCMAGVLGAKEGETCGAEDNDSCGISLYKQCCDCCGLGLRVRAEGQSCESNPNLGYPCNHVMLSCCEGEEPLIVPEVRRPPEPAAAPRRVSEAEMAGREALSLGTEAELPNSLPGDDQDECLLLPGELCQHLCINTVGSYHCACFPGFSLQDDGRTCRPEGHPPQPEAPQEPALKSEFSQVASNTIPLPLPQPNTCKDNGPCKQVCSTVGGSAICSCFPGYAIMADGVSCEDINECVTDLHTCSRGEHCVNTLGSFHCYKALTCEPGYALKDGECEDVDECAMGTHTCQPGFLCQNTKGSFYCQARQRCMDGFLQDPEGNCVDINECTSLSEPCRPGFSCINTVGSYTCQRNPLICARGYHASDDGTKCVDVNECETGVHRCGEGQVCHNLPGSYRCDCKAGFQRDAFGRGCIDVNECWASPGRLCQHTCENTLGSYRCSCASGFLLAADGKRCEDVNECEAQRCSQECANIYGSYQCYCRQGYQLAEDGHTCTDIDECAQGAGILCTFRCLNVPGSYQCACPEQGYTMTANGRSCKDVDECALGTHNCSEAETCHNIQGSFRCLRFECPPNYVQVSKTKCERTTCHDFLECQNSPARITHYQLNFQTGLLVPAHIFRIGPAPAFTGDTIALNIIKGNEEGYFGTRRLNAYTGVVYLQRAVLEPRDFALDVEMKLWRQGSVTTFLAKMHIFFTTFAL
# UniProt Q05655: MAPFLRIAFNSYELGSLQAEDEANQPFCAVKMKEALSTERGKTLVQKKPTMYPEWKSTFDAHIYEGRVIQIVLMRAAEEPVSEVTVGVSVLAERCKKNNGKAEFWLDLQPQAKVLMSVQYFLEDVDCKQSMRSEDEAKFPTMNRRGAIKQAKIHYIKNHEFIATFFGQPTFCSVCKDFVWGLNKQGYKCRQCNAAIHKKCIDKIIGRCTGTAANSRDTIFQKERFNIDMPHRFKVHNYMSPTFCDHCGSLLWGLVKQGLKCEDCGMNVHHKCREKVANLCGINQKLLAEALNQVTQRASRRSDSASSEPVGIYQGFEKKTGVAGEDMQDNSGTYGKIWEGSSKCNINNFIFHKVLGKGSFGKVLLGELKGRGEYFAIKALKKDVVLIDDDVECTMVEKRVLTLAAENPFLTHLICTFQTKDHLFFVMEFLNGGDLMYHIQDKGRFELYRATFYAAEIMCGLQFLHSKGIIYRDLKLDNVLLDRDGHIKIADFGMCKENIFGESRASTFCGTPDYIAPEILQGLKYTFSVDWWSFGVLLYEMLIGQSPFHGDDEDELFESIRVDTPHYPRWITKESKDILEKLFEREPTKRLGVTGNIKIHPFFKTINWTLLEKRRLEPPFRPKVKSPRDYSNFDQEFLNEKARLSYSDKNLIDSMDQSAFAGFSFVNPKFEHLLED
# UniProt P60604: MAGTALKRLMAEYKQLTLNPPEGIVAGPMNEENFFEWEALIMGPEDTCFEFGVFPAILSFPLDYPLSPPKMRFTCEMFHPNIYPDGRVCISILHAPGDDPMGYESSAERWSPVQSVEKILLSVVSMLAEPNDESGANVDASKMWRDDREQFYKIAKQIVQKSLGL
# UniProt Q06945: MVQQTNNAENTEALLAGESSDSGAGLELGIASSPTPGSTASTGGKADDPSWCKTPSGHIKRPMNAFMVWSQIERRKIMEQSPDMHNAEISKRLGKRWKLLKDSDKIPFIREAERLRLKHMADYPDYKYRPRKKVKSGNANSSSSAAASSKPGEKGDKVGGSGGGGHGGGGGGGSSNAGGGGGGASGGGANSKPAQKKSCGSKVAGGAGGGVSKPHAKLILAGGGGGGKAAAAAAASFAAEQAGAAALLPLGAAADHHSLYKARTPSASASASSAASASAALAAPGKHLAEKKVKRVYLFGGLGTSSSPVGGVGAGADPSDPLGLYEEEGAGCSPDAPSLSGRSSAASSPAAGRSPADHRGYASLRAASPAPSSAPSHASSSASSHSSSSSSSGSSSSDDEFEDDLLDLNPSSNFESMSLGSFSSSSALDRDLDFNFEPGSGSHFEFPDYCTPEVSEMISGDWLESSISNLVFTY
# UniProt P62937, whole entry, looked up: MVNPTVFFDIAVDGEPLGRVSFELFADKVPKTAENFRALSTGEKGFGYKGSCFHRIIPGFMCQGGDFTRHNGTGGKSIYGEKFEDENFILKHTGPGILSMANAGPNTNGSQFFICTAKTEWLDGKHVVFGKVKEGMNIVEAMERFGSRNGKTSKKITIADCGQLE
# ± gives the standard deviation of the averaged measurements. This is a selection; strong and weak results do not stand in their true shares.
# Compound: Nc1ncnc2c1ncn2[C@@H]1O[C@H](COP(=O)(O)OP(=O)(O)NP(=O)(O)O)[C@@H](O)[C@H]1O [adenylyl imidodiphosphate]
# Experiment: NP40-soluble protein abundance relative to vehicle (solubility fold change) (ratio); higher = more soluble protein in presence of AMP-PNP
# Settings: concentration: 1mM
# In short: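 In three independent experiments, Jurkat crude lysate made by Dounce homogenisation was treated for 10 min at room temperature and then 3 min at 37 °C with eight concentrations ranging from 0.1 to 10 mM. It was then solubilised with 0.8% NP40 plus benzonase for 60 min at 4 °C and ultracentrifuged. The supernatant was TMT-labelled for LC-MS/MS, and each value is the fold change against the detergent-processed vehicle for the same replicate, using vsn-normalised intensities.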
row,Target,NP40-soluble protein abundance
1,UniProt P63167,1.01 ± 0.026
2,UniProt P78347 and related entries,1.02 ± 0.025
3,UniProt P62273,0.9864 ± 0.0094
4,SRP54 (UniProt P61011),1 ± 0.014
5,UniProt P62256,1.02 ± 0.035
6,SSBP1 (UniProt Q04837),0.929 ± 0.073
7,TFAP4 (UniProt Q01664),0.978 ± 0.061
8,UniProt Q06136 and related entries,1.03 ± 0.043
9,MRPS35 (UniProt P82673),1.02 ± 0.086
10,HMGCS1 (UniProt Q01581),0.976 ± 0.018
11,UniProt P62750,1 ± 0.038
12,UniProt Q06787 and related entries,1.05 ± 0.04
13,UniProt P56159 and related entries,1.01 ± 0.013
14,UniProt P62820,1 ± 0.064
15,UniProt P62829,1.01 ± 0.0053
16,UniProt Q01085-2,0.997 ± 0.044
17,UniProt Q05932 and related entries,1.019 ± 0.0054
18,UniProt Q00722 and related entries,1.02 ± 0.049
19,UniProt P98095 and related entries,1.01 ± 0.036

row,Target,NP40-soluble protein abundance
1,CCT2 (UniProt P78371),0.955 ± 0.035
2,XIAP (UniProt P98170),1.01 ± 0.033
3,FOXK2 (UniProt Q01167),0.991 ± 0.046
4,GABPA (UniProt Q06546),0.985 ± 0.013
5,UniProt Q05655,1.02 ± 0.025
6,UniProt P60604 and related entries,1.01 ± 0.029
7,UniProt Q03188 and related entries,1.002 ± 0.0099
8,SOX4 (UniProt Q06945),1.03 ± 0.025
9,UniProt P62753,0.975 ± 0.059
10,UniProt P61225,0.925 ± 0.01
11,EIF6 (UniProt P56537),1.02 ± 0.036
12,PLCB3 (UniProt Q01970),1.01 ± 0.027
13,MRPS10 (UniProt P82664),1.03 ± 0.032
14,TFAM (UniProt Q00059),0.934 ± 0.12
15,UniProt P62937 and related entries,1.06 ± 0.18
16,UniProt P78356,0.989 ± 0.04
17,DSTN (UniProt P60981),0.9927 ± 0.0091
18,RPS27A (UniProt P62979),0.997 ± 0.063

# Same assay, conditions: concentration: 2mM
row,Target,NP40-soluble protein abundance
1,UniProt P63167,1.04 ± 0.052
2,UniProt P78347 and related entries,1.03 ± 0.03
3,UniProt P62273,0.974 ± 0.046
4,SRP54 (UniProt P61011),0.9835 ± 0.009
5,UniProt P62256,1.09 ± 0.093
6,SSBP1 (UniProt Q04837),0.918 ± 0.043
7,TFAP4 (UniProt Q01664),1.03 ± 0.039
8,UniProt Q06136 and related entries,1.02 ± 0.051
9,MRPS35 (UniProt P82673),1 ± 0.065
10,HMGCS1 (UniProt Q01581),0.944 ± 0.025
11,UniProt P62750,1.01 ± 0.048
12,UniProt Q06787 and related entries,1.11 ± 0.013
13,UniProt P56159 and related entries,1.03 ± 0.061
14,UniProt P62820,1 ± 0.045
15,UniProt P62829,0.9597 ± 0.0018
16,UniProt Q01085-2,0.976 ± 0.057
17,UniProt Q05932 and related entries,1.017 ± 0.0061
18,UniProt Q00722 and related entries,1.02 ± 0.05
19,UniProt P98095 and related entries,1.05 ± 0.047

row,Target,NP40-soluble protein abundance
1,CCT2 (UniProt P78371),0.916 ± 0.033
2,XIAP (UniProt P98170),1.01 ± 0.033
3,FOXK2 (UniProt Q01167),1 ± 0.057
4,GABPA (UniProt Q06546),0.943 ± 0.037
5,UniProt Q05655,0.979 ± 0.024
6,UniProt P60604 and related entries,0.996 ± 0.1
7,UniProt Q03188 and related entries,1.05 ± 0.04
8,SOX4 (UniProt Q06945),1.07 ± 0.07
9,UniProt P62753,0.946 ± 0.032
10,UniProt P61225,0.863 ± 0.098
11,EIF6 (UniProt P56537),0.959 ± 0.041
12,PLCB3 (UniProt Q01970),0.9949 ± 0.0042
13,MRPS10 (UniProt P82664),1.02 ± 0.069
14,TFAM (UniProt Q00059),1.01 ± 0.065
15,UniProt P62937 and related entries,0.879 ± 0.12
16,UniProt P78356,1.02 ± 0.025
17,DSTN (UniProt P60981),1 ± 0.032
18,RPS27A (UniProt P62979),1.01 ± 0.018
